According to the supplement of paper PMC6331611:
± gives the standard deviation of the averaged measurements. The full ranking holds about 1,600 compounds; the median of “normalized intracellular growth (luminescence, IQM-normalized) in RAW264.7 macrophages” is about 1, and the lowest 2% start at about 0.43. Some of the results follow.

Test system: Salmonella enterica serovar Typhimurium SL1344
Assay: normalized intracellular growth (luminescence, IQM-normalized) in RAW264.7 macrophages (fraction of plate interquartile mean); higher = more bacterial growth (less inhibition)
Details: 10 µM

SMILES	normalized intracellular growth (time point: T3 (3 h))	normalized intracellular growth (time point: Tfinal (~6 h))
COc1ccc(C[C@H](N)C(=O)N[C@H]2[C@@H](O)[C@H](n3cnc4c(N(C)C)ncnc43)O[C@@H]2CO)cc1	0.993 ± 0.058	1.05 ± 0.16
[O-][n+]1cccc(CO)c1	0.993 ± 0.047	0.982 ± 0.16
Cc1ccnc(NS(=O)(=O)c2ccc(N)cc2)n1	1.03 ± 0.076	0.986 ± 0.026
NCCCC(O)(P(=O)(O)O)P(=O)(O)O	0.994 ± 0.083	1.12 ± 0.14
Nc1ccc(S(=O)(=O)Nc2cnc3ccccc3n2)cc1	1.05 ± 0.077	1.05 ± 0.098
CNC[C@H](O)[C@@H](O)[C@H](O)[C@H](O)CO	1.04 ± 0.048	0.808 ± 0.19
CC(C)CCCC(C)N (stereo not given)	1.07 ± 0.043	1.24 ± 0.043
CC(=O)N[C@@H](CS)C(=O)O	0.924 ± 0.053	1.01 ± 0.013
CC(=O)O[C@H]1C[C@@]2(C)[C@@H](C[C@@H](O)[C@H]3[C@@]4(C)CC[C@@H](O)[C@@H](C)[C@@H]4CC[C@@]32C)/C1=C(\CCC=C(C)C)C(=O)O	0.828 ± 0.069	0.958 ± 0.12
CCN(CC)CCOC(=O)c1ccc(N)cc1	1.04 ± 0.039	1.02 ± 0.061
CC[C@H](C)C(=O)O[C@H]1C[C@@H](C)C=C2C=C[C@H](C)[C@H](CC[C@@H]3C[C@@H](O)CC(=O)O3)[C@H]21	1.07 ± 0.049	1.1 ± 0.11
CCCCC(CC)COC(=O)C(C#N)=C(c1ccccc1)c1ccccc1 (stereo not given)	0.995 ± 0.051	1.11 ± 0.093
Nc1c2c(nc3ccccc13)CCCC2	1.02 ± 0.043	0.979 ± 0.033
C=C[C@@]1(C)CC(=O)[C@]2(O)[C@@]3(C)[C@@H](O)CCC(C)(C)[C@@H]3[C@H](O)[C@H](OC(C)=O)[C@@]2(C)O1	1.26 ± 0.025	1.33 ± 0.33
CN(Cc1cnc2nc(N)nc(N)c2n1)c1ccc(C(=O)NC(CCC(=O)O)C(=O)O)cc1 (racemic)	1.05 ± 0.046	0.825 ± 0.024
C/C(=C(\CCOP(=O)(O)O)SC(=O)c1ccccc1)N(C=O)Cc1cnc(C)nc1N	1.08 ± 0.063	1.11 ± 0.22
CC1(C)O[C@@H]2C[C@H]3[C@@H]4CCC5=CC(=O)C=C[C@]5(C)[C@H]4[C@@H](O)C[C@]3(C)[C@]2(C(=O)CO)O1	1.08 ± 0.01	1.19 ± 0.26
CCN(CC)CCOc1ccc2c(c1)C(=O)c1cc(OCCN(CC)CC)ccc1-2	1 ± 0.035	1 ± 0.021
O=C(CCCCCCC(=O)Nc1ccccc1)NO	0.879 ± 0.019	0.893 ± 0.077
CC[C@H]1OC(=O)C[C@@H](O)[C@H](C)[C@@H](O[C@@H]2O[C@H](C)[C@@H](O[C@H]3C[C@@](C)(O)[C@@H](O)[C@H](C)O3)[C@H](N(C)C)[C@H]2O)[C@@H](CC=O)C[C@@H](C)C(=O)/C=C/C(C)=C/[C@@H]1CO[C@@H]1O[C@H](C)[C@@H](O)[C@@H](OC)[C@H]1OC	0.948 ± 0.091	0.932 ± 0.084
CC1(C)S[C@@H]2[C@H](NC(=O)[C@H](C(=O)O)c3ccsc3)C(=O)N2[C@H]1C(=O)O	0.983 ± 0.073	1.02 ± 0.17
CN[C@@H]1[C@@H](O)[C@@H](O[C@@H]2[C@@H](O)[C@H](O[C@H]3OC(CN)=CC[C@H]3N)[C@@H](N)C[C@H]2N)OC[C@]1(C)O	1 ± 0.052	1.04 ± 0.056
Cc1cc(NS(=O)(=O)c2ccc(N)cc2)no1	0.972 ± 0.056	1.02 ± 0.069
CC(C)OC(=O)CCC/C=C\C[C@@H]1[C@@H](/C=C/[C@@H](O)COc2cccc(C(F)(F)F)c2)[C@H](O)C[C@@H]1O	0.975 ± 0.033	1.19 ± 0.12
O=C1CN(/N=C/c2ccc(-c3ccc([N+](=O)[O-])cc3)o2)C(=O)N1	1.02 ± 0.021	0.9 ± 0.049

Gathered by group, the entries above with a COOH group (4)
SMILES	normalized intracellular growth (time point: T3 (3 h))	normalized intracellular growth (time point: Tfinal (~6 h))
CC(=O)N[C@@H](CS)C(=O)O	0.924 ± 0.053	1.01 ± 0.013
CC(=O)O[C@H]1C[C@@]2(C)[C@@H](C[C@@H](O)[C@H]3[C@@]4(C)CC[C@@H](O)[C@@H](C)[C@@H]4CC[C@@]32C)/C1=C(\CCC=C(C)C)C(=O)O	0.828 ± 0.069	0.958 ± 0.12
CN(Cc1cnc2nc(N)nc(N)c2n1)c1ccc(C(=O)NC(CCC(=O)O)C(=O)O)cc1 (racemic)	1.05 ± 0.046	0.825 ± 0.024
CC1(C)S[C@@H]2[C@H](NC(=O)[C@H](C(=O)O)c3ccsc3)C(=O)N2[C@H]1C(=O)O	0.983 ± 0.073	1.02 ± 0.17

Remaining list, next part.

SMILES	normalized intracellular growth (time point: T3 (3 h))	normalized intracellular growth (time point: Tfinal (~6 h))
CCC(=O)Oc1ccc2c(c1)CC[C@@H]1[C@@H]2CC[C@]2(C)[C@@H](OC(=O)CC)CC[C@@H]12	0.977 ± 0.092	0.934 ± 0.089
CC1(O)CCC(C(C)(C)O)CC1 (stereo not given)	0.995 ± 0.025	1.07 ± 0.056
CCOC(=O)n1ccn(C)c1=S	0.999 ± 0.032	1.15 ± 0.055
C[C@H](N)[C@H](O)c1cccc(O)c1	1.14 ± 0.082	0.922 ± 0.24
CC1(C)S[C@@H]2[C@H](NC(=O)C(C(=O)O)c3ccccc3)C(=O)N2[C@H]1C(=O)O (stereo not given in full)	1.01 ± 0.021	0.957 ± 0.059
CCN(CC)CCOC(=O)C(Cc1cccc2ccccc12)CC1CCCO1 (stereo not given)	1.07 ± 0.019	1.05 ± 0.15
CC(C)(C)C(=O)C(Oc1ccc(Cl)cc1)n1ccnc1 (stereo not given)	1.042 ± 0.0043	1.12 ± 0.016
O=C1CN(/N=C/c2ccc([N+](=O)[O-])o2)C(=O)N1	0.959 ± 0.028	1.17 ± 0.061
Cc1ccccc1OCC(O)CO (stereo not given)	1.01 ± 0.013	1.03 ± 0.053
CC(C(=O)O)c1cccc(C(=O)c2ccccc2)c1 (stereo not given)	0.97 ± 0.022	1.01 ± 0.091
Nc1nc(N)c2nc(CNc3ccc(C(=O)N[C@@H](CCC(=O)O)C(=O)O)cc3)cnc2n1	0.994 ± 0.021	1.09 ± 0.15
CCOC(=O)c1ncn2c1CN(C)C(=O)c1cc(F)ccc1-2	0.992 ± 0.02	1.05 ± 0.15
O=NN(CCCl)C(=O)NCCCl	1.02 ± 0.043	1.03 ± 0.013
CCCC1O[C@@H]2C[C@H]3[C@@H]4CCC5=CC(=O)C=C[C@]5(C)[C@H]4[C@@H](O)C[C@]3(C)[C@]2(C(=O)CO)O1 (stereo not given in full)	0.978 ± 0.021	1.03 ± 0.073
Nc1nc2c(ncn2COCCO)c(=O)[nH]1	0.941 ± 0.06	1.24 ± 0.18
CC(C)NCC(O)c1ccc(O)c(O)c1 (stereo not given)	0.968 ± 0.041	1.08 ± 0.073
COc1ccc2[nH]c([S@@+]([O-])Cc3ncc(C)c(OC)c3C)nc2c1	0.975 ± 0.073	0.983 ± 0.24
CCCCCN(CCCCC)C(=O)C(CCC(=O)O)NC(=O)c1ccc(Cl)c(Cl)c1 (stereo not given)	0.982 ± 0.039	0.835 ± 0.084
COc1c(N2C[C@@H]3CCCN[C@@H]3C2)c(F)cc2c(=O)c(C(=O)O)cn(C3CC3)c12	1.41 ± 0.1	0.00827 ± 0.001
COc1ccc(C(=O)c2ccccc2)c(O)c1	0.948 ± 0.07	0.417 ± 0.083
CC(=O)OCC(=O)[C@@]1(O)[C@H](C)C[C@H]2[C@@H]3CCC4=CC(=O)C=C[C@]4(C)[C@@]3(F)[C@@H](O)C[C@@]21C	1 ± 0.028	1 ± 0.037
COc1ncnc(NS(=O)(=O)c2ccc(N)cc2)c1OC	1.07 ± 0.098	1.13 ± 0.12
COc1ccc(C(=O)CC(=O)c2ccc(C(C)(C)C)cc2)cc1	1.07 ± 0.024	1.2 ± 0.13
CCOc1cc(CC(=O)N[C@@H](CC(C)C)c2ccccc2N2CCCCC2)ccc1C(=O)O	1.01 ± 0.055	1.15 ± 0.15
C#C[C@]1(O)CC[C@H]2[C@@H]3CCc4cc(O)ccc4[C@H]3CC[C@@]21C	0.975 ± 0.065	0.9533 ± 0.0089

SMILES	normalized intracellular growth (time point: T3 (3 h))	normalized intracellular growth (time point: Tfinal (~6 h))
CCc1cc(C(N)=S)ccn1	0.905 ± 0.053	0.98 ± 0.051
CC(=O)Nc1c(I)c(NC(C)=O)c(I)c(C(=O)O)c1I	1.01 ± 0.065	1.14 ± 0.16
Cc1ccc(C(=O)Nc2ccc(S(=O)(=O)O)c3cc(S(=O)(=O)O)cc(S(=O)(=O)O)c23)cc1NC(=O)c1cccc(NC(=O)Nc2cccc(C(=O)Nc3cc(C(=O)Nc4ccc(S(=O)(=O)O)c5cc(S(=O)(=O)O)cc(S(=O)(=O)O)c45)ccc3C)c2)c1	1.09 ± 0.048	1.1 ± 0.18
CC(=O)Nc1ccc(S(=O)(=O)Nc2ccc([N+](=O)[O-])cc2)cc1	0.992 ± 0.038	1.03 ± 0.15
O=C(N/N=C/c1ccc([N+](=O)[O-])o1)c1ccc(O)cc1	1.01 ± 0.017	1.02 ± 0.093
CN1CCN(C(c2ccccc2)c2ccc(Cl)cc2)CC1 (stereo not given)	1.07 ± 0.063	1.08 ± 0.17
CC(C)(O/N=C(\C(=O)N[C@@H]1C(=O)N2C(C(=O)[O-])=C(C[n+]3ccccc3)CS[C@H]12)c1csc(N)n1)C(=O)O	0.997 ± 0.078	0.806 ± 0.12
C[C@H]1[C@H](NC(=O)/C(=N\OC(C)(C)C(=O)O)c2csc(N)n2)C(=O)N1S(=O)(=O)O	0.992 ± 0.04	0.2 ± 0.016
CNCCC=C1c2ccccc2CCc2ccccc21	0.97 ± 0.018	1.23 ± 0.041
CCc1c2c(nc3ccc(OC(=O)N4CCC(N5CCCCC5)CC4)cc13)-c1cc3c(c(=O)n1C2)COC(=O)[C@]3(O)CC	0.989 ± 0.048	0.918 ± 0.11
CCn1cc(C(=O)O)c(=O)c2cc(F)c(N3CCNC(C)C3)c(F)c21 (stereo not given)	0.996 ± 0.098	0.0187 ± 0.0027
CS(=O)(=O)Nc1ccc([N+](=O)[O-])cc1Oc1ccccc1	1.01 ± 0.011	1.1 ± 0.28
CCC1=C[C@@H]2CN(C1)Cc1c([nH]c3ccccc13)[C@@](C(=O)OC)(c1cc3c(cc1OC)N(C)[C@H]1[C@@](O)(C(=O)OC)[C@H](OC(C)=O)[C@]4(CC)C=CCN5CC[C@]31[C@@H]54)C2	0.878 ± 0.014	0.7961 ± 0.0029
OCc1ccccc1	0.996 ± 0.016	0.959 ± 0.14
CNC(=C[N+](=O)[O-])NCCSCc1csc(CN(C)C)n1	0.995 ± 0.046	1 ± 0.053
C[C@]12C=CC(=O)C=C1CC[C@@H]1[C@@H]2C(=O)C[C@@]2(C)[C@H]1CC[C@]2(O)C(=O)CO	0.817 ± 0.19	0.833 ± 0.057
CCOC(=O)CCC(=O)O[C@H]1[C@H](O[C@@H]2[C@@H](C)[C@H](O[C@H]3C[C@@](C)(OC)[C@@H](O)[C@H](C)O3)[C@@H](C)C(=O)O[C@H](CC)[C@@](C)(O)[C@H](O)[C@@H](C)C(=O)[C@H](C)C[C@@]2(C)O)O[C@H](C)C[C@@H]1N(C)C	1 ± 0.088	1.21 ± 0.14
Cc1ccc(S(=O)(=O)NCl)cc1	0.946 ± 0.021	0.902 ± 0.052
C[C@@H]1CN(c2c(F)c(N)c3c(=O)c(C(=O)O)cn(C4CC4)c3c2F)C[C@H](C)N1	1.08 ± 0.037	0.0132 ± 0.002
C[C@@H]1O[C@@H]1P(=O)(O)O	0.967 ± 0.11	1.04 ± 0.064
CCn1cc(C(=O)O)c(=O)c2cc(F)c(N3CCN(C)CC3)cc21	1.11 ± 0.11	0.012 ± 0.0031
Nc1ncnc2c1ncn2[C@@H]1O[C@H](COP(=O)(O)O)[C@@H](O)[C@H]1O	0.935 ± 0.025	0.954 ± 0.03
CCC(=O)O[C@H]1[C@H](O[C@@H]2[C@@H](C)[C@H](O[C@H]3C[C@@](C)(OC)[C@@H](O)[C@H](C)O3)[C@@H](C)C(=O)O[C@H](CC)[C@@](C)(O)[C@H](O)[C@@H](C)C(=O)[C@H](C)C[C@@]2(C)O)O[C@H](C)C[C@@H]1N(C)C	0.792 ± 0.092	0.901 ± 0.065
CC(=O)Oc1cc(C(C)C)c(OCCN(C)C)cc1C	1.03 ± 0.017	1.09 ± 0.015
O=C(O)c1cc(O)c2c(c1)[C@H]([C@H]1c3cc(C(=O)O)cc(O)c3C(=O)c3c(O[C@@H]4O[C@H](CO)[C@@H](O)[C@H](O)[C@H]4O)cccc31)c1cccc(O[C@@H]3O[C@H](CO)[C@@H](O)[C@H](O)[C@H]3O)c1C2=O	0.957 ± 0.08	0.961 ± 0.026
